{"source": "PubChem BioAssay AID504444", "about": "(National Center for Advancing Translational Sciences (NCATS), 2011)", "note": "Values joined by “and” are separate entries in the source; they are usually repeats but may differ in a detail not shown here. Equal values may be shown once. The whole screen tested about 360,000 compounds, of which about 7,500 (2.1%) were called active. The inconclusive results got no clear call from the source; some entries with a clear call stand among them for comparison. The call rests on the fitted dose curve; in most records, active means well fitted inhibition curve with a large enough effect; inconclusive means small, poorly fitted or top-dose-only effect, or effect the other way; inactive means flat fitted curve, though single readings scatter. Potencies of inconclusive entries are doubtful fits and often do not repeat. Potency means the concentration at half of the fitted maximal effect.", "data": [{"experiment": "Nrf2 qHTS screen for inhibitors; further: nearly all actives have a fitted effect of over 60% in size", "settings": "A549 ARE-Fluc reporter, luciferase luminescence, 18-24 h; series mostly up to 46 µM", "method_in_brief": "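Nrf2 function is reported as luminescence of an ARE-controlled luciferase in A549 cells. Compounds were tested at several concentrations, and a CellTiter-Fluor read on the same wells flagged cytotoxicity.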", "values": [{"smiles": "CC(=O)c1ccc(N2CCN(c3ncc(C(F)(F)F)cc3Cl)CC2)cc1", "Potency": "inconclusive: 18.4 µM [falling, partial curve, poor fit]"}, {"smiles": "O=C(Cc1cccs1)NCCc1ccc(F)cc1", "Potency": "inactive"}, {"smiles": "CCCCc1nc2cc(C(=O)N3CCC(OCCOC)CC3)ccc2o1", "Potency": "inconclusive: 16.4 µM [activator, single point]"}, {"smiles": "COc1ccc(-n2nnnc2C2CCN(S(=O)(=O)c3cccc(Cl)c3C)CC2)cc1", "Potency": "inconclusive: 16.4 µM [falling, partial curve]"}, {"smiles": "CCCCn1c(CN2CCN(c3cccc(Cl)c3)CC2)nc2c1c(=O)[nH]c(=O)n2C", "Potency": "inconclusive: 13 µM [falling, partial curve, poor fit]"}, {"smiles": "NCCS", "Potency": "inconclusive: 6.51 µM [falling, partial curve, poor fit]"}, {"smiles": "CC(C)CC(COCc1ccc(Cl)cc1)N1CCN(C(=O)c2ccc(C(F)(F)F)cc2)CCC1=O", "note": "(configuration not stated)", "Potency": "inconclusive: 29.1 µM [falling, single point]"}, {"smiles": "COc1ccc(C(CCNCc2ccc(OC)c(OC)c2)c2ccc(F)cc2)cc1", "note": "(configuration not stated)", "Potency": "inactive"}, {"smiles": "Cc1cc2c(cc1S(=O)(=O)CCC(=O)NCc1ccccc1)OCC(=O)N2", "Potency": "inconclusive: 6.51 µM [falling, partial curve, poor fit]"}, {"smiles": "O=C(Nc1cccc(Cl)c1N1CCOCC1)c1cccnc1", "Potency": "inactive"}, {"smiles": "Cn1c(SCC(=O)N2CCCCCC2)nc2c(c1=O)SCC2", "Potency": "inconclusive: 18.4 µM [falling, partial curve, poor fit]"}, {"smiles": "O=C(c1ccco1)N1CCN(Cc2csc(-c3ccccc3Cl)n2)CC1", "Potency": "inactive"}, {"smiles": "Cc1ccc(Nc2c(-c3ccc(C)s3)nc3cccc(C)n23)cc1", "Potency": "inconclusive: 18.4 µM [falling, single point]"}, {"smiles": "C[C@H](CO)N1C[C@H](C)[C@@H](CN(C)Cc2ccc3c(c2)OCO3)Oc2c(NC(=O)C3CCCCC3)cccc2C1=O", "Potency": "inconclusive: 20.6 µM [falling, single point]"}, {"smiles": "COC(=O)c1sc(NC(=S)NC(=O)c2ccccc2C)nc1C", "Potency": "inconclusive: 29.1 µM [falling, single point]"}, {"smiles": "O=C(NCCc1cccs1)c1ccc(Cl)c(Cl)c1", "Potency": "inconclusive: 11.6 µM [activator, partial curve]"}, {"smiles": "COCCNC(=O)C(=O)NCC(c1cccnc1)N1CCN(c2ccccc2OC)CC1", "note": "(configuration not stated)", "Potency": "inconclusive: 20.6 µM [falling, single point]"}, {"smiles": "CC1=CC=CC2=NC(=O)CC(C)(C(=O)O)N12", "note": "(configuration not stated)", "Potency": "inactive"}, {"smiles": "Cc1ccc(OCC(=O)N/N=C/c2cn[nH]c2-c2ccc(Cl)c(Cl)c2)cc1", "Potency": "inconclusive: 29.1 µM [falling, single point]"}, {"smiles": "O=C1C(Cl)=C(NCCc2ccccc2)C(=O)N1CCc1ccccc1", "Potency": "inactive"}, {"smiles": "COc1cccc(N2C(=O)C3CCCN3C2=S)c1", "note": "(configuration not stated)", "Potency": "inconclusive: 14.6 µM [activator, partial curve, poor fit]"}, {"smiles": "CC(C)(C)NC(=O)c1cnn(-c2ccccc2)c1C1CCN(C(=O)OC(C)(C)C)CC1", "Potency": "inconclusive: 4.11 µM [activator, full curve, poor fit]"}, {"smiles": "O=C(Cn1ncc2c3ccccc3n(Cc3ccccc3F)c2c1=O)NC1CCCCCC1", "Potency": "inactive"}, {"smiles": "Cc1ccc(CSc2ccc(-c3cccs3)nn2)cc1", "Potency": "inconclusive: 5.8 µM [activator, partial curve] and inconclusive: 7.31 µM [activator, partial curve]"}, {"smiles": "O=C(OCC(=O)c1c[nH]c2ccccc12)c1cc2ccccc2cc1O", "Potency": "inactive"}, {"smiles": "COc1ccc(C(=O)Nc2nnc(-c3ccc(F)cc3)s2)c(OC)c1", "Potency": "active: 16.4 µM"}, {"smiles": "COc1ccc(S(=O)(=O)n2cnc3cc(C)c(C)cc32)cc1C", "Potency": "inconclusive: 10.3 µM [falling, partial curve]"}, {"smiles": "COc1ccc(NC(=O)CC2S/C(=N\\c3nccs3)N(C)C2=O)cc1", "note": "(configuration not stated)", "Potency": "inconclusive: 0.184 µM [activator, full curve, poor fit]"}, {"smiles": "Cc1cc(NC(=O)CN2CCCC2c2nc3ccccc3s2)no1", "note": "(configuration not stated)", "Potency": "inconclusive: 18.4 µM [activator, partial curve, poor fit]"}, {"smiles": "COc1ccc(-c2nc3c(Br)c(N)c(Br)cc3o2)cc1", "Potency": "inconclusive: 0.231 µM [activator, partial curve, poor fit]"}, {"smiles": "CN(CC(=O)Nc1ccccc1Br)CC(=O)NC(c1ccccc1)c1ccccc1", "Potency": "inconclusive: 32.6 µM [falling, partial curve, poor fit]"}, {"smiles": "CCCN1C(=O)c2[nH]nc(-c3ccccc3O)c2C1c1cccc(OCc2ccccc2)c1", "note": "(configuration not stated)", "Potency": "inconclusive: 29.1 µM [falling, single point]"}, {"smiles": "O=C(NCC(=O)N(c1ccc(F)cc1)C(C(=O)NC1CCCCC1)c1ccncc1)c1ccco1", "note": "(configuration not stated)", "Potency": "inactive"}, {"smiles": "Cc1cc(CSc2ccccc2)ccc1NC(=O)c1ccc(Br)cc1", "Potency": "inconclusive: 8.2 µM [falling, partial curve]"}, {"smiles": "CCOc1ccccc1NC(=O)CSc1nnc(N)s1", "Potency": "inconclusive: 5.17 µM [falling, partial curve, poor fit]"}, {"smiles": "O=C(COc1ccccc1)Nc1cccc(-c2ccc(N3CCOCC3)nn2)c1", "Potency": "inconclusive: 1.84 µM [activator, full curve]"}, {"smiles": "Cc1ccc(NC(=O)CCC(=O)N/N=C/c2ccccc2O)cc1", "Potency": "inconclusive: 18.4 µM [falling, partial curve, poor fit]"}, {"smiles": "O=C(C1COc2ccccc2O1)N1CCN(c2ccc(C(F)(F)F)cn2)CC1", "note": "(configuration not stated)", "Potency": "inconclusive: 29.1 µM [falling, single point]"}, {"smiles": "CC(=O)Nc1ccccc1NC(=O)COc1cccc2ccccc12", "Potency": "inconclusive: 32.6 µM [falling, partial curve, poor fit]"}, {"smiles": "Cc1ccc(NC(=O)C2CCN(S(=O)(=O)c3ccccc3)CC2)cc1", "Potency": "active: 14.6 µM"}, {"smiles": "C[C@@H]1C[C@H]2[C@@H]3CCC4=CC(=O)C=C[C@]4(C)[C@@]3(F)C(O)C[C@]2(C)[C@@]1(O)C(=O)CO", "note": "(some centres not stated)", "Potency": "active: 0.0052 µM"}, {"smiles": "CCCn1cnc2cc(NCc3ccccn3)ccc21", "Potency": "inconclusive: 1.03 µM [activator, full curve]"}, {"smiles": "CCCn1c(N)c(C(=O)COc2ccc(Br)cc2F)c(=O)n(C)c1=O", "Potency": "inconclusive: 10.3 µM [falling, partial curve]"}, {"smiles": "COc1cccc(N2CCN(C(=O)C3CCN(S(=O)(=O)c4cccs4)CC3)CC2)c1", "Potency": "inconclusive: 25.9 µM [falling, partial curve, poor fit]"}, {"smiles": "O=C(Nc1cccc(S(=O)(=O)NC2=NCCC2)c1)c1ccc(OC(F)F)cc1", "Potency": "inconclusive: 16.4 µM [falling, partial curve, poor fit]"}, {"smiles": "COc1ccc(-c2csc(NC(=O)C3CC(=O)N(Cc4ccco4)C3)n2)cc1", "note": "(configuration not stated)", "Potency": "inconclusive: 29.1 µM [falling, single point]"}, {"smiles": "Cc1ccc(CN(C(=O)COc2ccc(Cl)c(C)c2)c2ccccn2)o1", "Potency": "inactive"}, {"smiles": "CCOc1ccc2ncc(S(=O)(=O)c3ccc(C)cc3)c(N3CCC4(CC3)OCCO4)c2c1", "Potency": "inconclusive: 18.4 µM [falling, single point]"}, {"smiles": "C/C(N)=C(/C#N)C(=O)COc1ccc(Cl)cc1Cl", "Potency": "inconclusive: 29.1 µM [activator, partial curve, poor fit]"}, {"smiles": "Cc1oc2ncn(C)c(=O)c2c1C(=O)Nc1ccccn1", "Potency": "inactive"}, {"smiles": "COC(=O)c1ccc(C(=O)OC)c(NC(=S)N2CCOCC2)c1", "Potency": "inactive"}, {"smiles": "O=C(c1ccc2c(=O)n(CCc3ccccc3)c(=O)[nH]c2c1)N1CCN(c2ccccc2)CC1", "Potency": "inconclusive: 5.17 µM [falling, partial curve]"}, {"smiles": "CCCCn1c(N)c(N(CC)C(=O)c2ccc(-c3ccc(Cl)cc3)o2)c(=O)[nH]c1=O", "Potency": "inactive"}, {"smiles": "CCOC(=O)c1[nH]c2ccc(F)cc2c1NC(=O)c1ccccc1C(=O)O", "Potency": "inactive"}, {"smiles": "Cc1csc(NC(=O)c2ccccc2)n1", "Potency": "inconclusive: 16.4 µM [activator, single point]"}, {"smiles": "CN(Cc1ccccc1)C(=O)c1ccc(S(=O)(=O)N(C)c2ccccc2)cc1", "Potency": "inconclusive: 25.9 µM [falling, single point]"}, {"smiles": "CCn1c(-c2csc(C(C)C)c2)n[nH]c1=S", "Potency": "inactive"}, {"smiles": "O=C(c1ccc(COc2c(F)c(F)c(F)c(F)c2F)o1)N1CCN(Cc2ccc3c(c2)OCO3)CC1", "Potency": "inconclusive: 25.9 µM [falling, partial curve, poor fit]"}, {"smiles": "CC(=O)c1ccc(N2CCN(C(=O)c3nn(C)c4c3CS(=O)(=O)c3ccccc3-4)CC2)cc1", "Potency": "inconclusive: 18.4 µM [falling, single point]"}, {"smiles": "CN(c1ccccc1)S(=O)(=O)c1ccc(C(=O)N2CCN(c3ccccc3Cl)CC2)cc1", "Potency": "inconclusive: 18.4 µM [falling, single point]"}, {"smiles": "Cc1cc(C(=O)CSc2n[nH]c(N)n2)c(C)n1-c1cccc(F)c1", "Potency": "inconclusive: 1.46 µM [activator, full curve, poor fit]"}, {"smiles": "O=C(CN(Cc1ccccc1F)S(=O)(=O)c1ccc(Cl)cc1)NCCC1=CCCCC1", "Potency": "inconclusive: 0.651 µM [falling, full curve]"}, {"smiles": "CC1CN/C(=C\\C(=O)c2ccccc2)C(=O)N1", "note": "(configuration not stated)", "Potency": "inconclusive: 2.59 µM [activator, partial curve, poor fit]"}, {"smiles": "O=C(Nc1cc(F)ccc1F)C1CCCN(c2ncnc3c2nc2n3CCCCC2)C1", "note": "(configuration not stated)", "Potency": "inactive"}, {"smiles": "COc1ccc(OCC(=O)Nc2c3c(nn2C(C)(C)C)CSC3)cc1", "Potency": "active: 11.6 µM"}, {"smiles": "O=C(NC(=S)NCCN1CCOCC1)c1ccccc1Cl", "Potency": "inactive"}, {"smiles": "O=C(COc1ccccc1F)N1CCCc2ccccc21", "Potency": "inactive"}]}]}
